Measured values as given in the supplement of paper PMC10849652.
The list shows a part of the results.

By UniProt entry, the sequences of proteins in these tests, tags left out. Where a name states a change or a piece, a line headed by the entry shows the natural chain unless it says otherwise.
UniProt Q6NZ67, whole entry, looked up: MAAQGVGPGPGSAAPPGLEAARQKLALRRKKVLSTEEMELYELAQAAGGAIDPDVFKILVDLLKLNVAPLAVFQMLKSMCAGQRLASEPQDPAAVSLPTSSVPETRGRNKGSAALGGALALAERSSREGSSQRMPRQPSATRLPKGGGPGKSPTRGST
UniProt P61599, whole entry, looked up: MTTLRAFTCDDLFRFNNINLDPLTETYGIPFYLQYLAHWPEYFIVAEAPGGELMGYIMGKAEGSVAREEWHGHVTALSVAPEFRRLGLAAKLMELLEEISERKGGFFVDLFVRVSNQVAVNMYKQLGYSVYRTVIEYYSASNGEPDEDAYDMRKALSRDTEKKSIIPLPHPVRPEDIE
UniProt P51970, whole entry, looked up: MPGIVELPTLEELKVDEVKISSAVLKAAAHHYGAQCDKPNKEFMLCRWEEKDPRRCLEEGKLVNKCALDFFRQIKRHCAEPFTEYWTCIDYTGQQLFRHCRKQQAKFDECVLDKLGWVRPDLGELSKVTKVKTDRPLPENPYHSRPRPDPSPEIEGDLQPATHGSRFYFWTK
UniProt Q8TBE9: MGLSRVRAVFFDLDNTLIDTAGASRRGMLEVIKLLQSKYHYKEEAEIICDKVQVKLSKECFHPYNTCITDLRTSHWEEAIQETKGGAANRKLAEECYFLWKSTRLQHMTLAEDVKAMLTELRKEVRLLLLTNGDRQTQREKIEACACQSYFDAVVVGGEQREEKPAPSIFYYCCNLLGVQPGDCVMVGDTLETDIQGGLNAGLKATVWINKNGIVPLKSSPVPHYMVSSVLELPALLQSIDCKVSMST
UniProt Q9UBB6: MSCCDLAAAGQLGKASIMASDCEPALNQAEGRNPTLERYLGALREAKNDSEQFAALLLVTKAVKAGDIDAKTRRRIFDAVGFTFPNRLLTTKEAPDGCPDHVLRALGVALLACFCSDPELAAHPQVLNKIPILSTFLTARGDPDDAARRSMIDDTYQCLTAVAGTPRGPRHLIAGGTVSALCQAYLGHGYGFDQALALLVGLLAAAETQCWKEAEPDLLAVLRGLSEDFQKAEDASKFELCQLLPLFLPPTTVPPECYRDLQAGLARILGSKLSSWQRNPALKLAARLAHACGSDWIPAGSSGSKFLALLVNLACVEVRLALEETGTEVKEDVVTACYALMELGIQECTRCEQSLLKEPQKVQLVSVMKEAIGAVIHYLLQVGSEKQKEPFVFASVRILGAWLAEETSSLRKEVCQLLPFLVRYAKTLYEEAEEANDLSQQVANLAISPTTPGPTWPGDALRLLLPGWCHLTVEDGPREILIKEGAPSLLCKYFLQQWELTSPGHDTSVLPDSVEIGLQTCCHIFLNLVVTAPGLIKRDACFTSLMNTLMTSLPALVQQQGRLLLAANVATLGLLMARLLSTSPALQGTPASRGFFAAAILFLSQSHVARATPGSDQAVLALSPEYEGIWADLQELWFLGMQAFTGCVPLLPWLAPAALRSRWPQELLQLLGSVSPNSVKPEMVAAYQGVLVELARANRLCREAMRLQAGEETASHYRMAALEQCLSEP
UniProt Q13564: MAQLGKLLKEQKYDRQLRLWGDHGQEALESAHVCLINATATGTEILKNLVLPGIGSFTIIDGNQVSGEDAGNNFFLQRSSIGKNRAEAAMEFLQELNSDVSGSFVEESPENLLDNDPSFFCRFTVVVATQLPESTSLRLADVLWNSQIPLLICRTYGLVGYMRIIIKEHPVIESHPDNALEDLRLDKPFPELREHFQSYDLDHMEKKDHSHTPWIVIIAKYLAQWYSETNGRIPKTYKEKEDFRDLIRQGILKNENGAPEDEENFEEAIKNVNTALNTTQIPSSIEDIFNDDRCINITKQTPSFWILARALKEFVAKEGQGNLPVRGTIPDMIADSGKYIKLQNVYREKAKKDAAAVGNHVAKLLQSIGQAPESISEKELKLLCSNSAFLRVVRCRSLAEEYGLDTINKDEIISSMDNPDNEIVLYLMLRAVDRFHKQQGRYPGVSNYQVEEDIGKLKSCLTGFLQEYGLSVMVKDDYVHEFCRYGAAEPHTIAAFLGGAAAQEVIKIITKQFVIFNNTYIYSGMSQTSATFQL
UniProt Q9BPX3, whole entry, looked up: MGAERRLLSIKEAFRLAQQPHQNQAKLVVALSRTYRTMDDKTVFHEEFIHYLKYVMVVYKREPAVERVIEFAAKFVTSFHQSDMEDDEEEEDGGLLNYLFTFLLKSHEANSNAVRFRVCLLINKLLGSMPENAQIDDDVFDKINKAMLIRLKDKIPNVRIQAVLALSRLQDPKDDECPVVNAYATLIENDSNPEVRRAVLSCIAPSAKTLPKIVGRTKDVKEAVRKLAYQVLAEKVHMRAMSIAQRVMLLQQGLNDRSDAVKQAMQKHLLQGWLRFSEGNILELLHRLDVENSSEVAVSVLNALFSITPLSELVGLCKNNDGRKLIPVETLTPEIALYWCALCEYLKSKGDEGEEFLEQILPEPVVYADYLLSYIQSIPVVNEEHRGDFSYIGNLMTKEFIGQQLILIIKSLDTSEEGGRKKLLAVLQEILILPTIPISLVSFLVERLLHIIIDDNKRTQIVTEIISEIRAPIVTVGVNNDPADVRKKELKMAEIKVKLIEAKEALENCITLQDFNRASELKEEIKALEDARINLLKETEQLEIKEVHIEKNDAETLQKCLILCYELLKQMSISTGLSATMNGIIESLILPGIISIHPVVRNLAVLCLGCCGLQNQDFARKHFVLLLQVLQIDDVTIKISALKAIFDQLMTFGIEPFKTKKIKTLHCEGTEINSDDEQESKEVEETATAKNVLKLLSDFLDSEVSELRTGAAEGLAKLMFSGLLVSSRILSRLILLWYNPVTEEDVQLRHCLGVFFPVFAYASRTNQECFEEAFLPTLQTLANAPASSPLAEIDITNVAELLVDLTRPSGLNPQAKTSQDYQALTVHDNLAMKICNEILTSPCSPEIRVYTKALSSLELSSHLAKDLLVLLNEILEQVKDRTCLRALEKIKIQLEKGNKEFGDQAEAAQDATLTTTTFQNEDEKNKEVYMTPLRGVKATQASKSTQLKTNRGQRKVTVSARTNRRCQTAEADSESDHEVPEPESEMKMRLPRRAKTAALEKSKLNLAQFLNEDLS
UniProt Q92692, whole entry, looked up: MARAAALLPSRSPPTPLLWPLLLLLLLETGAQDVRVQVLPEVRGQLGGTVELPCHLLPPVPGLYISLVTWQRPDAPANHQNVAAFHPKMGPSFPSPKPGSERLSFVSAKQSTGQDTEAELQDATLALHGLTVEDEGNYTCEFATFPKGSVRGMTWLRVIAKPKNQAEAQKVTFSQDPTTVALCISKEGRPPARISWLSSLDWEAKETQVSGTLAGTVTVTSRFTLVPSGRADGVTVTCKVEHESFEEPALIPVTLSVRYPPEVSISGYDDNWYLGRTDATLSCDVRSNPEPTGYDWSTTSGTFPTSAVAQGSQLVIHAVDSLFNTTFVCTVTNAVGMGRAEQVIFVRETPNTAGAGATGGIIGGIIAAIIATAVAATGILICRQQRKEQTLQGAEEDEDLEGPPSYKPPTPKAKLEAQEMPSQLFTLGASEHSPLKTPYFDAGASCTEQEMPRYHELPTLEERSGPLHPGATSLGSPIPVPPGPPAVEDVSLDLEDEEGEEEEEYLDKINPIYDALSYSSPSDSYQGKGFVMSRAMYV
UniProt Q9GZM8: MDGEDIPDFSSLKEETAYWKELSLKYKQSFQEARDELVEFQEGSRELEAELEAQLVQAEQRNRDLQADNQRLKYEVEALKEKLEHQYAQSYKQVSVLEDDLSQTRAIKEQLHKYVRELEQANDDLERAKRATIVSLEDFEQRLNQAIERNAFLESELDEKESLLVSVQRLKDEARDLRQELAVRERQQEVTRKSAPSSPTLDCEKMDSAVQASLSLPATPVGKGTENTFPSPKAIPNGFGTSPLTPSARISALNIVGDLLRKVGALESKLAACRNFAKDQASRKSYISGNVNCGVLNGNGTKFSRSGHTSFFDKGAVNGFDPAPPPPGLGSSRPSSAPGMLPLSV
UniProt O95182, whole entry, looked up: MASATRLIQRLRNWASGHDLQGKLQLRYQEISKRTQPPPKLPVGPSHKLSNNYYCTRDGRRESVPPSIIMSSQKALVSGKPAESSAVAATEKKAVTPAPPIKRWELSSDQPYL
UniProt Q4G0T1: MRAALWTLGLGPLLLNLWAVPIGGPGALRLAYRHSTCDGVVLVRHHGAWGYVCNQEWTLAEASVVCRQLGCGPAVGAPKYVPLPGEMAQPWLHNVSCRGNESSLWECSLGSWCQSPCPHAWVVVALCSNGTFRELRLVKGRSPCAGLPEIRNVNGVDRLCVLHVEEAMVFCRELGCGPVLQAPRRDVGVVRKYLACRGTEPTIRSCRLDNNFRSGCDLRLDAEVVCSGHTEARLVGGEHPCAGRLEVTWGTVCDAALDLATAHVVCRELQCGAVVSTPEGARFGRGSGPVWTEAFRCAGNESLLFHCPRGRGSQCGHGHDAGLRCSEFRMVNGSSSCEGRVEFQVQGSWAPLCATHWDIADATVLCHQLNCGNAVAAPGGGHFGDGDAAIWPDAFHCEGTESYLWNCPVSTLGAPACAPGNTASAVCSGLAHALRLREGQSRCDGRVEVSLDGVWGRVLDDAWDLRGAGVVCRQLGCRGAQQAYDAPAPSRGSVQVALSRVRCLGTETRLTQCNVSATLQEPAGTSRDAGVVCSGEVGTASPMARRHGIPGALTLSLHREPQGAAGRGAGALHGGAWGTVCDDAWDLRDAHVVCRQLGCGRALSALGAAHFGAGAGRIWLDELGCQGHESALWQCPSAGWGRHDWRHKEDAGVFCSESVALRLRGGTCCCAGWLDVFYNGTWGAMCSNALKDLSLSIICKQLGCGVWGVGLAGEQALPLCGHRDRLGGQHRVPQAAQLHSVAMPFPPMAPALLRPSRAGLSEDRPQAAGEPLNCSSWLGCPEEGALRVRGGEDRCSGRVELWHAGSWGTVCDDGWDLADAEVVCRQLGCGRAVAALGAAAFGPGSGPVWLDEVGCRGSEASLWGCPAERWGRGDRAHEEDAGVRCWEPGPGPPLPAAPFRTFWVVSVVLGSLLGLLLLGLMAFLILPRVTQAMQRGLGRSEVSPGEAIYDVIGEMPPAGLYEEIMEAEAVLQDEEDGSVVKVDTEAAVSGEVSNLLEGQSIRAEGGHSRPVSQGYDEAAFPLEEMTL
UniProt Q99747: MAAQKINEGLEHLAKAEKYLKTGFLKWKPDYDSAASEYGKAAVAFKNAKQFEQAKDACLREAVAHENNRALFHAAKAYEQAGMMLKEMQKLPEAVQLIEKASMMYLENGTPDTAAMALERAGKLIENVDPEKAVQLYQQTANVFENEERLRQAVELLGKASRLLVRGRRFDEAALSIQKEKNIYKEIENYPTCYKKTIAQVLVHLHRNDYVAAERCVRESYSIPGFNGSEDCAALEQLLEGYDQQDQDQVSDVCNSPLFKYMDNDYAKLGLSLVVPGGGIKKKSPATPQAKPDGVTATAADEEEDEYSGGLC
UniProt O00483, whole entry, looked up: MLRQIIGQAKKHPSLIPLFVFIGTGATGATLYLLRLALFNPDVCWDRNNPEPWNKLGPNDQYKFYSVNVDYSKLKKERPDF
UniProt Q69YL0: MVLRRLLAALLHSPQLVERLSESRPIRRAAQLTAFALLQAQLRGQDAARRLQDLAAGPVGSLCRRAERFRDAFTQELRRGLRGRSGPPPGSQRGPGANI
UniProt Q9BRA0: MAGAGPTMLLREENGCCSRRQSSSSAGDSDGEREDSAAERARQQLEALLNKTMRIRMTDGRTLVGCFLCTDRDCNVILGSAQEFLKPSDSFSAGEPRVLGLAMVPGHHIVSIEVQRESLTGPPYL

Legend:
Experiment in all cases: log2 fold change, soluble protein after heating vs DMSO (PISA); higher = thermal stabilisation; K562 cells, 10 uM, 30 min; active = over 0.2 and 3.5 SD of the protein, either way, in both replicates (recomputed)
[1] = compound: CN1CCN(CCOc2cc(OC3CCOCC3)c3c(Nc4c(Cl)ccc5c4OCO5)ncnc3c2)CC1 [saracatinib]
How it was run: (§1)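 Quantification of soluble protein used TMTpro 16plex LC-MS/MS, with channel sums equalised. Samples were the supernatant after 21,000xg for 90 min of pooled aliquots from K562 cells (2×10^6 cells/mL) treated with 10 μM compound for 30 min, heated for 3 min over 48°C-58°C, and extracted in PBS with 0.5% NP-40 at 4°C. Values, from duplicates, describe thermal stability against control samples on a log2 fold-change scale.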

[2] = compound: CN1CCN(c2nc(C3=C(c4c[nH]c5ccccc45)C(=O)NC3=O)c3ccccc3n2)CC1 [sotrastaurin]
How it was run: as §1

[3] = compound: CN1CC[C@H](c2c(O)cc(O)c3c(=O)cc(-c4ccccc4Cl)oc23)[C@H](O)C1 [alvocidib]
How it was run: as §1

[4] = compound: CN1CCc2c(c3ccccc3n2Cc2ccc(C(=O)NO)cc2)C1 [Tubastatin A]
How it was run: as §1

[5] = compound: CNC(=O)C1=CC=CC=C1NC2=NC(=NC=C2Cl)NC3=C(C=C(C=C3)N4CCOCC4)OC
How it was run: as §1

[6] = compound: CNC(=O)c1ccc(Nc2ncc(C(F)(F)F)c(NCc3nccnc3N(C)S(C)(=O)=O)n2)cc1 [defactinib]
How it was run: as §1

[7] = compound: CNc1nc(-c2ccc3c(N)n[nH]c3c2)cc(N2C[C@@H](C(=O)NC3CCCCC3)CC[C@H]2C)n1
How it was run: as §1

[8] = compound: COC(=O)[C@H](CCSC)NC(=O)C1=C(C=C(C=C1)NC[C@H](CS)N)C2=CC=CC=C2
How it was run: as §1

[9] = compound: COC1=CC=C(C=C1)CN2C=CC3=C2C=C(C=C3)C(=O)NO
How it was run: as §1

[10] = compound: CON(C)C(=O)N1N=C(c2cc(F)ccc2F)S[C@@]1(CCCN)c1ccccc1 [filanesib]
How it was run: as §1

[11] = compound: CO[C@H]1C[C@@H]2CC[C@@H](C)[C@@](O)(O2)C(=O)C(=O)N2CCCC[C@H]2C(=O)O[C@H]([C@H](C)C[C@@H]2CC[C@H](n3cnnn3)[C@H](OC)C2)CC(=O)[C@H](C)/C=C(\C)[C@@H](O)[C@@H](OC)C(=O)[C@H](C)C[C@H](C)/C=C/C=C/C=C/1C [zotarolimus]
How it was run: as §1

[12] = compound: COc1cc(C(=O)O)ccc1NC(=O)[C@@H]1N[C@@H](CC(C)(C)C)[C@](C#N)(c2ccc(Cl)cc2F)[C@H]1c1cccc(Cl)c1F [idasanutlin]
How it was run: as §1

[13] = compound: COc1cc(Nc2ncc3c(n2)-c2ccc(Cl)cc2C(c2c(F)cccc2OC)=NC3)ccc1C(=O)O [alisertib]
How it was run: as §1

[14] = compound: COc1cc2nc(-c3cc(F)ccc3O)nc(N[C@@H]3CNC[C@H]3C(C)(C)O)c2cc1OC
How it was run: as §1

[15] = compound: COc1cc2ncnc(Nc3ccc(F)c(Cl)c3)c2cc1OCCCN1CCOCC1 [gefitinib]
How it was run: as §1

[16] = compound: COc1cccc2cc(-c3nc([C@H]4CC[C@H](C(=O)O)CC4)n4ncnc(N)c34)[nH]c12
How it was run: as §1

[17] = compound: CS(=O)(=O)CCNCc1ccc(-c2ccc3ncnc(Nc4ccc(OCc5cccc(F)c5)c(Cl)c4)c3c2)o1 [lapatinib]
How it was run: as §1

[18] = compound: CS(=O)(=O)N1CCN(Cc2cc3nc(-c4cccc5[nH]ncc45)nc(N4CCOCC4)c3s2)CC1 [pictilisib]
How it was run: as §1

[19] = compound: CNCc1ccc(-c2[nH]c3cc(F)cc4c3c2CCNC4=O)cc1 [rucaparib]
How it was run: as §1

[20] = compound: COC(=O)N[C@@H](C)CNc1nccc(-c2cn(C(C)C)nc2-c2cc(Cl)cc(NS(C)(=O)=O)c2F)n1 [encorafenib]
How it was run: as §1

Measured: log2 fold change

MZT2B (UniProt Q6NZ67)
inactive: [1] 0 | [2] 0.042 | [3] -0.038 | [4] 0.121 | [5] -0.076 | [6] -0.065 | [7] 0.002 | [8] 0.026 | [9] -0.072 | [10] -0.002 | [11] -0.025 | [12] 0.184 | [13] 0.049 | [14] -0.124 | [15] -0.082 | [16] -0.035 | [17] 0.059 | [18] -0.071

NAA20 (UniProt P61599)
inactive: [1] 0.003 | [2] -0.032 | [3] -0.11 | [4] 0.011 | [5] -0.006 | [6] -0.02 | [19] -0.024 | [7] 0.048 | [20] -0.013 | [8] 0.027 | [9] -0.099 | [10] -0.066 | [11] 0.058 | [12] -0.082 | [13] 0.078 | [14] -0.01 | [15] 0.025 | [16] 0.059 | [17] -0.031 | [18] -0.01

NDUFA8 (UniProt P51970)
inactive: [1] -0.022 | [2] 0.009 | [3] -0.003 | [4] -0.014 | [5] 0.044 | [6] -0.033 | [19] -0.034 | [7] -0.046 | [20] 0.005 | [8] 0.086 | [9] -0.008 | [10] -0.072 | [11] -0.046 | [12] 0 | [13] -0.043 | [14] -0.065 | [15] -0.007 | [16] 0.012 | [17] -0.044 | [18] 0.044

NANP (UniProt Q8TBE9)
inactive: [1] -0.051 | [2] 0.035 | [3] -0.035 | [4] 0.054 | [5] 0.029 | [6] -0.016 | [19] 0.038 | [7] 0.056 | [20] 0.022 | [8] -0.023 | [10] -0.048 | [11] 0.034 | [12] -0.037 | [13] -0.003 | [14] 0.089 | [15] 0.011 | [16] -0.049 | [17] 0.072 | [18] 0.094

NCDN isoform 3 (UniProt Q9UBB6)
inactive: [1] -0.046 | [2] -0.059 | [3] -0.136 | [4] 0.047 | [5] 0.024 | [6] -0.148 | [19] 0.077 | [7] -0.015 | [20] 0.053 | [8] -0.06 | [9] 0.009 | [10] 0.018 | [11] 0.055 | [12] -0.031 | [13] 0.129 | [14] 0.129 | [15] 0.017 | [16] 0.109 | [17] -0.111 | [18] 0.115

NAE1 (UniProt Q13564)
inactive: [1] 0.007 | [2] -0.032 | [3] -0.094 | [4] 0.05 | [5] 0.008 | [6] -0.057 | [19] -0.025 | [7] 0.052 | [20] 0.026 | [8] -0.026 | [9] 0.002 | [10] -0.029 | [11] 0.011 | [12] 0.018 | [13] -0.074 | [14] 0.072 | [15] 0.032 | [16] 0.025 | [17] -0.002 | [18] -0.003

NACA4P (UniProt Q9BZK3)
inactive: [1] 0.169 | [2] 0.027 | [3] -0.04 | [4] 0.101 | [5] -0.146 | [6] -0.028 | [19] -0.048 | [7] 0 | [20] -0.037 | [8] -0.032 | [9] 0.122 | [10] -0.063 | [11] 0.135 | [12] -0.154 | [13] 0.056 | [15] -0.199 | [16] 0.101

NCAPG (UniProt Q9BPX3)
inactive: [1] -0.077 | [2] -0.122 | [4] 0.026 | [5] 0.106 | [6] -0.067 | [19] 0.078 | [7] -0.004 | [20] 0.093 | [8] -0.039 | [9] 0.079 | [10] -0.018 | [11] 0.054 | [12] -0.064 | [13] 0.03 | [14] 0.038 | [15] 0.022 | [16] -0.116 | [17] 0 | [18] 0.071

NECTIN2 isoform 2 (UniProt Q92692)
inactive: [1] 0.188 | [2] 0.288 | [5] 0.062 | [6] 0.11 | [19] -0.039 | [7] 0.158 | [20] 0.077 | [8] 0.049 | [9] 0.106 | [10] 0.094 | [12] 0.061 | [13] -0.016 | [15] -0.048 | [16] 0.093 | [18] -0.368

NDEL1 isoform 2 (UniProt Q9GZM8)
inactive: [1] 0.051 | [3] -0.043 | [4] 0.03 | [5] 0.052 | [6] -0.106 | [19] 0.212 | [7] -0.071 | [20] -0.2 | [8] 0.018 | [11] -0.046 | [12] 0.083 | [13] -0.056 | [14] -0.109 | [15] -0.007 | [16] 0.079 | [17] -0.004 | [18] 0.007

NDUFA7 (UniProt O95182)
inactive: [1] -0.037 | [2] 0.047 | [4] -0.148 | [5] -0.042 | [6] 0 | [19] 0.046 | [7] -0.031 | [20] -0.042 | [8] -0.008 | [9] 0.003 | [10] -0.072 | [11] 0.005 | [12] -0.197 | [13] -0.042 | [14] -0.147 | [15] -0.178 | [16] 0.013 | [17] -0.002 | [18] -0.007

NA isoform 3 (UniProt Q4G0T1)
inactive: [1] -0.011 | [2] 0.035 | [4] 0.04 | [5] 0.007 | [6] 0.034 | [7] -0.053 | [8] -0.001 | [9] -0.007 | [10] 0.049 | [11] 0.044 | [12] 0.052 | [13] -0.09 | [14] 0.039 | [15] 0.016 | [16] 0.106 | [17] 0.112

NAPG (UniProt Q99747)
inactive: [1] -0.028 | [2] -0.075 | [4] 0.048 | [5] 0.031 | [6] -0.159 | [19] 0.044 | [7] 0.053 | [20] 0.052 | [8] -0.028 | [9] 0.046 | [10] -0.046 | [11] 0.052 | [12] -0.001 | [13] -0.005 | [14] -0.066 | [15] 0.025 | [16] -0.089 | [17] 0.029 | [18] -0.008

NA, A0A096LPI6
inactive: [1] 0.05 | [2] 0.017 | [4] -0.037 | [5] 0.005 | [6] 0 | [19] 0.007 | [7] -0.055 | [20] -0.009 | [8] 0.019 | [9] 0.008 | [10] -0.044 | [11] 0.019 | [12] -0.014 | [13] -0.034 | [14] -0.123 | [15] 0.018 | [16] 0.074 | [17] 0.029 | [18] -0.02

NDUFA4 (UniProt O00483)
inactive: [1] 0.021 | [2] 0.021 | [4] -0.029 | [5] 0.009 | [6] -0.03 | [19] -0.106 | [7] -0.129 | [20] -0.04 | [8] 0.001 | [9] -0.022 | [10] -0.031 | [11] -0.019 | [12] 0.038 | [13] -0.024 | [14] -0.044 | [15] 0.024 | [16] 0.019 | [17] 0.048 | [18] -0.025

NCBP2AS2 (UniProt Q69YL0)
active: [14] -0.42
inactive: [1] 0.056 | [2] 0.215 | [4] -0.064 | [5] -0.005 | [6] 0.013 | [19] -0.03 | [7] -0.081 | [20] 0.031 | [8] 0.031 | [10] -0.09 | [11] -0.051 | [12] -0.023 | [13] -0.058 | [15] -0.137 | [16] 0.044 | [17] -0.093 | [18] 0.033

NAA38 isoform 2 (UniProt Q9BRA0)
inactive: [1] -0.02 | [2] 0.009 | [4] 0.081 | [5] -0.044 | [6] -0.101 | [19] 0.023 | [7] 0.044 | [20] 0.022 | [8] -0.058 | [9] 0.033 | [10] -0.014 | [11] 0.001 | [12] -0.045 | [13] 0.044 | [14] -0.005 | [15] 0.02 | [16] 0.052 | [17] 0.062 | [18] 0.023
